Results taken from paper PMC9778238, “How Discoloration of Porcine Cruor Hydrolysate Allowed the Identification of New Antifungal Peptides” (Foods, 2022).

Test: Loss of peptide on discoloration (heme precipitation at pH 4.5), peak area in RP-UPLC-MS/MS
Settings: variation of the peak area of the peptide between raw and discolored hydrolysate spectra; 100 = absent in discolored hydrolysate

| Substance | Decrease (%) |
| --- | --- |
| NLSHGSDQVKAHGQKVADALTKAVGHLDDLPGAL [porcine hemoglobin fragment α 47–80] | 16.6 |
| LLVVYPWTQRF [porcine hemoglobin fragment β 32–42] | 47.3 |
| LVVYPWTQRF [porcine hemoglobin fragment β 33–42] | 11.6 |
| HVDPENFRLLGNVIVVVLARRLGHDFNPNVQ [porcine hemoglobin fragment β 98–128, synthesized] | 90.0 |
| DQLHVDPENFRLLGNVIVVVLARRLGHDFNPNVQ [porcine hemoglobin fragment β 95–128] | 100.0 |
| FESF [porcine hemoglobin fragment β 43–46] | 10.8 |
